According to paper PMC2481302:
These are yes or no findings as the source states them, for the method shown. A result given as binding can be weak or reduced; the word gives no strength.

Target: T1, CXCL4/CTF, synthetic peptide encompassing amino-acid sequence 47-70 of CXCL4 (human)
T1 sequence (peptide): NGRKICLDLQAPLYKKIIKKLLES
Experiment: ELISA; solid-phase ligand-binding assay; Immulon 2 wells coated with 25 µg/ml CXCL4 or CXCL4/CTF in PBS overnight at 4°C, blocked with 1% BSA in Walsh buffer; octylglucoside αvβ3 integrin added for 2 h at 37°C (legend: overnight at 4°C); bound integrin detected with polyclonal anti-αv cytoplasmic domain antibody, peroxidase anti-rabbit IgG and TMB; soluble RGD or RGE peptides or anti-integrin antibodies added to block; both purified

binding: binds
Substance: purified human integrin αvβ3 (octylglucoside αvβ3 integrin) (complex)
